Patent publication US20250243245A1 (priority 2022, published 2025)
Several values for one entry are separate records, joined by “and”; a condition that tells them apart may be missing. Identical values can stand only once. Like-named read-outs stand apart in the source and are kept apart here. At least one peptide structure holds a part that was inferred or is arguable (an end, a ring closure or a residue). Where a SMILES comes first, the peptide text is derived from it.

Tests used:
[1] = tested on: CLas; format: cell-based, Candidatus Liberibacter asiaticus
[2] = tested on: E. amylovora; format: cell-based, Erwinia amylovora; conditions: for Ct, RNA, Erwinia Primer (P29T), Mean / Ct, RNA, Erwinia Primer (P29T), single replicate: 25∞M peptide; for effectiveness in clearing E. amylovora: detached leaf assay, summary; for Ct value, DNA, E. amylovora clearance from infected apple leaves / cfu, DNA, E. amylovora clearance from infected apple leaves: qPCR of DNA; for cfu, DNA, E. amylovora clearance from infected apple leaves / cfu, RNA, E. amylovora clearance from infected apple leaves: value in brackets; for Ct value, RNA, E. amylovora clearance from infected apple leaves / cfu, RNA, E. amylovora clearance from infected apple leaves: qPCR of RNA
[3] = tested on: Xf; format: in vivo, Xylella fastidiosa; conditions: foliar spray 25 mM on day 0, 25 and 70; preliminary field efficacy data
[4] = tested on: ATCC25922
[5] = tested on: selected genes in the PTI, ETI, and SA/JA/ET signaling; format: cell-based, apple (Red Delicious)

With `CC[C@H](C)[C@H](NC(=O)[C@H](CCCNC(=N)N)NC(=O)[C@H](CCCNC(=N)N)NC(=O)[C@H](CCC(N)=O)NC(=O)[C@H](Cc1c[nH]c2ccccc12)NC(=O)[C@H](Cc1ccccc1)NC(=O)CNC(=O)[C@@H]1CCCN1C(=O)[C@H](CO)NC(=O)CNC(=O)[C@H](Cc1ccc(O)cc1)NC(=O)CNC(=O)[C@H](CO)NC(=O)[C@H](CCC(=O)O)NC(=O)[C@H](CC(C)C)NC(=O)[C@@H](NC(=O)[C@H](CCCCN)NC(=O)[C@H](CC(C)C)NC(=O)[C@@H](NC(=O)[C@H](CCCCN)NC(=O)[C@H](CCC(=O)O)NC(=O)[C@@H]1CCCN1C(=O)[C@H](CC(C)C)NC(=O)[C@H](CCCCN)NC(=O)[C@@H](N)CCCCN)[C@@H](C)CC)[C@@H](C)CC)C(=O)N[C@@H](CCCNC(=N)N)C(=O)N[C@@H](CCCNC(=N)N)C(=O)N[C@@H](Cc1c[nH]c2ccccc12)C(=O)N[C@@H](CCCNC(=N)N)C(=O)N[C@@H](CCCNC(=N)N)C(=O)O` [UGK-13] (H-KKLPEKILKILESGYGSPGFWQRRIRRWRR-OH) the CLas clearance [1] was “over 80%”, the “Ct value, DNA, CLas clearance from infected citrus leaves” value [1] was 28.05 ± 0.012 (5.5 × 10^4 ± 0.065) and the “Ct value, RNA, CLas clearance from infected citrus leaves” value [1] was 31.12 ± 0.011 (7.7 × 10^3 ± 0.065). For the same molecule, the “Ct, DNA, HLBas (CLas primer), Mean” value [1] was 28.05 and 24.935, the “Ct, DNA, HLBas (CLas primer), single replicate” value [1] was 28.3 and 25.09 and 27.8 and 24.78 and the “Ct, RNA, HLBas (CLas primer), Mean” value [1] was 31.115. The “Ct, RNA, HLBas (CLas primer), single replicate” value [1] was 30.88 and 31.35, the “cfu, DNA, CLas clearance from infected citrus leaves” value [1] was 28.05 ± 0.012 (5.5 × 10^4 ± 0.065) cfu and the “cfu, RNA, CLas clearance from infected citrus leaves” value [1] was 31.12 ± 0.011 (7.7 × 10^3 ± 0.065) cfu. The “Ct, DNA, Erwinia Primer (P29T), Mean” value ([2]; 20 μM peptide) was 36.7, the “Ct, DNA, Erwinia Primer (P29T), single replicate” value ([2]; 20 μM peptide, listed as UKG-13) was 36.21 and 37.19 and the “Ct, DNA, Erwinia Primer (P29T), Mean” value ([2]; 25 μM peptide) was 35.78. The “Ct, DNA, Erwinia Primer (P29T), single replicate” value ([2]; 25 μM peptide, listed as UKG-13) was 40 and 31.56, the “Ct, RNA, Erwinia Primer (P29T), Mean” value [2] was 34.435 and the “Ct, RNA, Erwinia Primer (P29T), single replicate” value [2] was 33.56 and 35.31. For the same molecule, the “effectiveness in clearing E. amylovora” value [2] was “effective in clearing E. amylovora”, the “Ct value, DNA, E. amylovora clearance from infected apple leaves” value ([2]; 25 μM peptide) was 35.78 ± 2.98 and the “cfu, DNA, E. amylovora clearance from infected apple leaves” value ([2]; 25 μM peptide) was ~10^2 cfu. For the same molecule, the “Ct value, RNA, E. amylovora clearance from infected apple leaves” value ([2]; 25 μM peptide) was 34.44 ± 0.620, the “cfu, RNA, E. amylovora clearance from infected apple leaves” value ([2]; 25 μM peptide) was 300 ± 0.065 cfu and the “clearance of Xf from infected Chardonnay vines” value [3] was “clears Xf”. For the same molecule, the IC99% [4] was 1.8 ± 0.3 µM.
`CC[C@H](C)[C@H](NC(=O)[C@H](CCCNC(=N)N)NC(=O)[C@H](CCCNC(=N)N)NC(=O)[C@H](CCC(N)=O)NC(=O)[C@H](Cc1c[nH]c2ccccc12)NC(=O)[C@H](Cc1ccccc1)NC(=O)CNC(=O)[C@@H]1CCCN1C(=O)[C@H](CO)NC(=O)CNC(=O)[C@H](CCCCN)NC(=O)[C@H](CC(C)C)NC(=O)[C@H](CO)NC(=O)[C@H](CCC(=O)O)NC(=O)[C@H](CC(C)C)NC(=O)[C@@H](NC(=O)[C@H](CCCCN)NC(=O)[C@H](CC(C)C)NC(=O)[C@@H](NC(=O)[C@H](CCCCN)NC(=O)[C@H](CCC(=O)O)NC(=O)[C@@H]1CCCN1C(=O)[C@H](CC(C)C)NC(=O)[C@H](CCCCN)NC(=O)[C@@H](N)CCCCN)[C@@H](C)CC)[C@@H](C)CC)C(=O)N[C@@H](CCCNC(=N)N)C(=O)N[C@@H](CCCNC(=N)N)C(=O)N[C@@H](Cc1c[nH]c2ccccc12)C(=O)N[C@@H](CCCNC(=N)N)C(=O)N[C@@H](CCCNC(=N)N)C(=O)O` [UGK-17] (H-KKLPEKILKILESLKGSPGFWQRRIRRWRR-OH) was tested, and the CLas clearance [1] was roughly 100%, the “Ct value, DNA, CLas clearance from infected citrus leaves” value [1] was 31.44 ± 0.013 (9.2 × 10^3 ± 0.210) and the “Ct value, RNA, CLas clearance from infected citrus leaves” value [1] was 33.30 ± 0.026 (7.0 × 10^2 ± 0.310). The “Ct, DNA, HLBas (CLas primer), Mean” value [1] was 31.245 and 29.28, the “Ct, DNA, HLBas (CLas primer), single replicate” value [1] was 30.74 and 29.94 and 31.75 and 28.62 and the “Ct, RNA, HLBas (CLas primer), Mean” value [1] was 32.755. The “Ct, RNA, HLBas (CLas primer), single replicate” value [1] was 33.36 and 32.15, the “cfu, DNA, CLas clearance from infected citrus leaves” value [1] was 31.44 ± 0.013 (9.2 × 10^3 ± 0.210) cfu and the “cfu, RNA, CLas clearance from infected citrus leaves” value [1] was 33.30 ± 0.026 (7.0 × 10^2 ± 0.310) cfu. For the same molecule, the “Ct, DNA, Erwinia Primer (P29T), Mean” value ([2]; 20 μM peptide) was 35.59, the “Ct, DNA, Erwinia Primer (P29T), single replicate” value ([2]; 20 μM peptide, listed as UKG-17) was 38.4 and 32.78 and the “Ct, DNA, Erwinia Primer (P29T), Mean” value ([2]; 25 μM peptide) was 34.46. For the same molecule, the “Ct, DNA, Erwinia Primer (P29T), single replicate” value ([2]; 25 μM peptide, listed as UKG-17) was 34.5 and 34.42, the “Ct, RNA, Erwinia Primer (P29T), Mean” value [2] was 34.1 and the “Ct, RNA, Erwinia Primer (P29T), single replicate” value [2] was 34.89 and 33.31. For the same molecule, the “effectiveness in clearing E. amylovora” value [2] was “effective in clearing E. amylovora”, the “Ct value, DNA, E. amylovora clearance from infected apple leaves” value ([2]; 25 μM peptide) was 34.46 ± 0.028 and the “cfu, DNA, E. amylovora clearance from infected apple leaves” value ([2]; 25 μM peptide) was 400 ± 0.31 cfu. The “Ct value, RNA, E. amylovora clearance from infected apple leaves” value ([2]; 25 μM peptide) was 34.10 ± 0.560, the “cfu, RNA, E. amylovora clearance from infected apple leaves” value ([2]; 25 μM peptide) was 700 ± 0.210 cfu and the “expression of the selected genes” value [5] was “A lot more genes are overexpressed”.
